The supplement of paper PMC12462457
± gives the standard deviation of the averaged measurements. Some of the results follow. Single values are uncertain here, since repeats match poorly.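 Cells were counted by imaging DAPI-stained nuclei, and cells lacking phalloidin-stained cytoplasm were excluded as dead. Each well's count was divided by the median count of the vehicle wells on the same plate, and values were averaged over two replicate plates.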

Test system: OVCAR8
Assay: cell count relative to DMSO vehicle (fold change); higher = more surviving senescent cells (less killing)
Settings: senescence inducer: cisplatin 10 µM 48 h, then 6 d recovery (CP senescent), exposure time 24 h

Row | Compound | cell count (compound dose 1 µM) | cell count (compound dose 5 µM)
1 | COc1ccc(-c2cc(=O)c3c(OC)c(OC)c(OC)c(OC)c3o2)cc1OC | 1.17 ± 0.059 | 0.803 ± 0.47
2 | Cc1nnc(NC(=O)c2nc(S(=O)(=O)Cc3ccc(F)cc3)ncc2Cl)s1 | 0.892 ± 0.083 | 0.686 ± 0.13
3 | C[C@H](Nc1ccc2c(c1)OCCn1cc(N3C(=O)OC[C@H]3C(F)F)nc1-2)C(N)=O | 1.09 ± 0.18 | 1.23 ± 0.076
4 | CC1(C)C=C(CN2C/C(=C\c3ccc(F)cc3)C(=O)/C(=C/c3ccc(F)cc3)C2)C(C)(C)N1O | 1.22 ± 0.068 | 1.25 ± 0.24
5 | COc1ccc(-c2cc(Nc3ccnc(N4CCOCC4)n3)on2)cc1 | 1.18 ± 0.04 | 0.751 ± 0.042
6 | COc1ccc(/C=C/c2cc(O)cc(O[C@@H]3O[C@H](CO)[C@@H](O)[C@H](O)[C@H]3O)c2)cc1O [Rhapontin] | 1.03 ± 0.052 | 0.915 ± 0.045
7 | Cc1c2c(nn1C)CSCc1cc(n(C)n1)CSc1cc(c3ccccc3c1)OCCCc1c(C(=O)O)n(C)c3c-2c(Cl)ccc13 | 0.767 ± 0.096 | 0.62 ± 0.073
8 | COc1ccc(-c2ccc3cc(C(=O)O)ccc3c2)cc1C12CC3CC(CC(C3)C1)C2 | 0.825 ± 0.11 | 0.608 ± 0.18
9 | C=CCNC1=C2C[C@@H](C)C[C@H](OC)[C@H](O)[C@@H](C)/C=C(\C)[C@H](OC(N)=O)[C@@H](OC)/C=C\C=C(/C)C(=O)NC(=CC1=O)C2=O [Tanespimycin] | 0.875 ± 0.09 | 0.371 ± 0.014
10 | CNc1nc(C)c(-c2nc(Nc3cccc(S(N)(=O)=O)c3)ncc2F)s1 | 0.892 ± 0.19 | 0.742 ± 0.14
11 | CN1C(=O)NC(Cc2c[nH]c3c(Cl)cccc23)C1=O (racemic) [Necrostatin 2 (racemate)] | 1.05 ± 0.064 | 0.856 ± 0.32
12 | Cc1ccc(C(=O)Nc2sc(Nc3ccccc3)nc2C(N)=O)cc1 | 1.08 ± 0.11 | 1.2 ± 0.068
13 | O=C(/C=C/c1ccc(O)c(O)c1)O[C@H](Cc1ccc(O)c(O)c1)C(=O)O [Rosmarinic acid] | 1.09 ± 0.22 | 0.781 ± 0.24
14 | C=C[C@](C)(O)CC[C@@H]1[C@@]2(C)CCCC(C)(C)[C@@H]2CC[C@@]1(C)O [Sclareol] | 1.29 ± 0.059 | 0.99 ± 0.14
15 | O=C(O)CC(C(=O)O)n1c(O)c(C2=c3cc(Br)ccc3=NC2=O)sc1=S (centres undefined) | 0.8 ± 0.17 | 0.797 ± 0.021
16 | COc1cc(CNC(=O)CCCC/C=C/C(C)C)ccc1O | 0.928 ± 0.071 | 0.794 ± 0.024
17 | C[C@]12CC[C@@H]3c4ccc(O)cc4C[C@@H](CCCCCCCCC[S+]([O-])CCCC(F)(F)C(F)(F)F)[C@H]3[C@@H]1CC[C@@H]2O (some centres undefined) [Fulvestrant] | 0.811 ± 0.083 | 0.844 ± 0.12
18 | COc1ccc(-c2cc(=O)c3c(O)c(OC)c(OC)cc3o2)cc1 [Salvigenin] | 1.18 ± 0.012 | 0.95 ± 0.16
19 | NC1(Cc2ccc(Cl)cc2)CCN(c2ncnc3[nH]ccc23)CC1 | 1.21 ± 0.18 | 0.911 ± 0.15
20 | CC(C)c1c2cc(-c3ccnc(NC4CCC(NC5CCOCC5)CC4)n3)ccc2nn1C (centres undefined) | 0.978 ± 0.011 | 0.9395 ± 0.0092
21 | CCOC(=O)C1=C(N)Oc2ccc(Br)cc2C1C(C#N)C(=O)OCC (centres undefined) | 0.818 ± 0.11 | 0.954 ± 0.16

Row | Compound | cell count (compound dose 1 µM) | cell count (compound dose 5 µM)
22 | CC(=O)c1c(Nc2ccc(Cl)cc2)[nH]c2c(Br)ccc(Cl)c2c1=O | 1.33 ± 0.03 | 1.33 ± 0.19
23 | CCn1c2ccccc2c2cc(CNC)ccc21 | 0.859 ± 0.086 | 0.762 ± 0.32
24 | CCCOC(=O)c1ccc(O)cc1 [Propylparaben] | 0.688 ± 0.044 | 0.621 ± 0.29
25 | O=C(NCCN1CCOCC1)Nc1nc2ccc(Sc3nnc4ccc(-c5ccc(F)cc5)nn34)cc2s1 | 0.952 ± 0.15 | 0.947 ± 0.13
26 | COc1cc2ccc(=O)oc2c(O)c1O [Fraxetin] | 0.938 ± 0.15 | 0.694 ± 0.19
27 | CCOC(=O)C1=C(C)NC(=S)NC1c1cccc(O)c1 (centres undefined) [Monastrol] | 0.8615 ± 0.0078 | 0.879 ± 0.25
28 | CC(C)(C)c1cc(NC(=O)Nc2ccc(-c3cn4c(n3)sc3cc(OCCN5CCOCC5)ccc34)cc2)no1 [Quizartinib (AC220)] | 1 ± 0.064 | 0.903 ± 0.17
29 | CN1CCN(c2ccc(-c3cccc(CN4CCOCC4)c3)cc2NC(=O)c2c[nH]c(=O)cc2C(F)(F)F)CC1 | 0.942 ± 0.098 | 0.894 ± 0.15
30 | CC1(C)Cc2c(-c3ccccc3)c(-c3ccc(Cl)cc3)c(CC(=O)O)n2C1 [Licofelone] | 0.818 ± 0.16 | 0.804 ± 0.075
31 | CCOC(=O)/C=C(C)/C=C/C=C(C)/C=C/c1c(C)cc(OC)c(C)c1C [Etretinate] | 0.77 ± 0.19 | 0.809 ± 0.043
32 | COc1ccc(S(=O)(=O)Nc2cc(-c3csc(C#N)c3)ccc2C)cc1 | 0.694 ± 0.017 | 0.458 ± 0.17
33 | O=c1c(O)c(-c2ccc(O)cc2)oc2cc(O)cc(O)c12 | 0.939 ± 0.086 | 0.666 ± 0.2
34 | CCCc1ccc(OCC(=O)N(Cc2nc(-c3cccnc3)no2)C(C)C)cc1 | 0.768 ± 0.47 | 0.99 ± 0.099
35 | CC#CCn1c(N2CCC[C@@H](N)C2)nc2c1c(=O)n(Cc1nc(C)c3ccccc3n1)c(=O)n2C [Linagliptin] | 0.867 ± 0.06 | 0.525 ± 0.29
36 | C[C@@H]1CC[C@@]2(OC1)O[C@H]1C[C@H]3[C@@H]4CC=C5C[C@@H](O[C@@H]6O[C@H](CO)[C@@H](O[C@@H]7O[C@@H](C)[C@H](O[C@@H]8O[C@@H](C)[C@H](O)[C@@H](O)[C@H]8O)[C@@H](O)[C@H]7O)[C@H](O)[C@H]6O[C@@H]6O[C@@H](C)[C@H](O)[C@@H](O)[C@H]6O)CC[C@]5(C)[C@H]4CC[C@]3(C)[C@@]1(O)[C@@H]2C [Paris saponin VII] | 0.942 ± 0.023 | 0.0415 ± 0.05
37 | CC(C)(CO)[C@@H](O)C(=O)NCCC(=O)O [D-Pantothenic acid (sodium)] | 1.21 ± 0.051 | 1.201 ± 0.0014
38 | CC[C@@H]1C(=O)N(C)c2cnc(Nc3ccc(C(=O)N[C@H]4CC[C@H](N5CCN(CC6CC6)CC5)CC4)cc3OC)nc2N1C(C)C [Volasertib] | 0.815 ± 0.027 | 0.686 ± 0.0085
39 | C=C1C(=O)O[C@@]23[C@H]1CC[C@@H](C)[C@@H]2CC[C@@]1(C)O[C@@H]31 [Arteannuin B] | 0.655 ± 0.042 | 0.945 ± 0.061
40 | Cc1nc(C(=O)NCC(=O)O)c(O)c2ccc(Oc3ccccc3)cc12 [Roxadustat (FG-4592)] | 0.984 ± 0.076 | 0.88 ± 0.034
41 | O=C(Nc1cnn2ccc(N3CCC[C@@H]3c3cc(F)ccc3F)nc12)N1CC[C@H](O)C1 [Larotrectinib] | 0.903 ± 0.025 | 0.894 ± 0.13
42 | CC[C@H](NC(=O)[C@H](C)NC)C(=O)N1C[C@@H](O)C[C@H]1Cc1c(-c2[nH]c3cc(F)ccc3c2C[C@@H]2C[C@H](O)CN2C(=O)[C@H](CC)NC(=O)[C@H](C)NC)[nH]c2cc(F)ccc12 [Birinapant] | 0.371 ± 0.013 | 0.216 ± 0.08

Complete entries from above.
CCCc1ccc(OCC(=O)N(Cc2nc(-c3cccnc3)no2)C(C)C)cc1 is entered as cell count (compound dose 1 µM): 0.768 ± 0.47; cell count (compound dose 5 µM): 0.99 ± 0.099
C[C@@H]1CC[C@@]2(OC1)O[C@H]1C[C@H]3[C@@H]4CC=C5C[C@@H](O[C@@H]6O[C@H](CO)[C@@H](O[C@@H]7O[C@@H](C)[C@H](O[C@@H]8O[C@@H](C)[C@H](O)[C@@H](O)[C@H]8O)[C@@H](O)[C@H]7O)[C@H](O)[C@H]6O[C@@H]6O[C@@H](C)[C@H](O)[C@@H](O)[C@H]6O)CC[C@]5(C)[C@H]4CC[C@]3(C)[C@@]1(O)[C@@H]2C [Paris saponin VII] is entered as cell count (compound dose 1 µM): 0.942 ± 0.023; cell count (compound dose 5 µM): 0.0415 ± 0.05
